PubChem BioAssay AID504774 | Drosophila RNAi Screening Center – 2011
The deposit covers about 23,000 reagents; below is a random part of those that have a named target and a result. 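Values are quantile-normalised luminescence on an arbitrary scale; higher means more cells surviving MMS.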 Names joined by + are all predicted targets of the reagent. No sequences are given here.

Purpose: 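Genes required for cells to withstand methyl methanesulphonate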 (primary screen)
Cell system: Drosophila Kc167 cells
Reagent: long dsRNA against Drosophila genes, about 0.25 µg dsRNA per well
Timing: about 6 days: 3 days knock-down, then 3 days with or without MMS
Treatment: methyl methanesulphonate 0.004% (w/v) for 3 days after knock-down
Measured: 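ATP-dependent luminescence as a measure of live cells in MMS-exposed wells, quantile normalised within each plate, with replicate values also given as a mean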
Direction: mean viability with MMS and viability with MMS: higher = more surviving cells after MMS

| predicted target | dsRNA | mean viability with MMS | viability with MMS, replicate 1 | viability with MMS, replicate 2 |
| --- | --- | --- | --- | --- |
| CG14120 | DRSC10124 | 3.59e6 | 4.14e6 | 3.98e6 |
| CG13315 | DRSC09986 | 3.43e6 | 3.71e6 | 4.07e6 |
| slo | DRSC17057 | 3.50e6 | 3.93e6 | 4.02e6 |
| CG7655 | DRSC16275 | 3.71e6 | 4.16e6 | 4.19e6 |
| Rip11 | DRSC20000 | 3.54e6 | 4.11e6 | 3.92e6 |
| Ssdp | DRSC16211 | 3.58e6 | 4.15e6 | 3.97e6 |
| CG3091 | DRSC18274 | 3.50e6 | 3.83e6 | 4.12e6 |
| qsm | DRSC05896 | 3.55e6 | 3.97e6 | 4.08e6 |
| qsm | DRSC06393 | 3.51e6 | 3.86e6 | 4.10e6 |
| CG8414 | DRSC07168 | 3.45e6 | 3.83e6 | 3.97e6 |
| CG13226 | DRSC06346 | 3.76e6 | 3.98e6 | 4.67e6 |
| Gr22e | DRSC20912 | 2.07e6 | 4.04e6 | 4.04e6 |
| CG7794 | DRSC16313 | 3.56e6 | 4.07e6 | 4.00e6 |
| mgr | DRSC16099 | 3.58e6 | 4.05e6 | 4.05e6 |
| ppan | DRSC17030 | 3.49e6 | 3.96e6 | 3.97e6 |
| CG31975 + ovm | DRSC00323 | 3.35e6 | 3.76e6 | 3.76e6 |
| CG34393 | DRSC00419 | 3.76e6 | 4.13e6 | 4.25e6 |
| CG34393 | DRSC00710 | 3.78e6 | 4.04e6 | 4.40e6 |
| CG4036 | DRSC02735 | 3.72e6 | 4.33e6 | 4.16e6 |
| CG4607 | DRSC18375 | 3.62e6 | 4.24e6 | 3.98e6 |
| CG4942 | DRSC10462 | 3.61e6 | 4.12e6 | 4.09e6 |
| CG31388 | DRSC15254 | 3.55e6 | 4.00e6 | 4.06e6 |
| mtSSB | DRSC17005 | 3.62e6 | 4.10e6 | 4.14e6 |
| PXo | DRSC09734 | 3.84e6 | 4.33e6 | 4.38e6 |
| CG7069 | DRSC16188 | 3.52e6 | 4.09e6 | 3.91e6 |
| DIP1 | DRSC20818 | 3.55e6 | 4.04e6 | 4.01e6 |
| NLaz | DRSC21521 | 3.68e6 | 4.18e6 | 4.12e6 |
| alpha-Man-Ic | DRSC21674 | 3.62e6 | 4.08e6 | 4.13e6 |
| ftz | DRSC12626 | 3.61e6 | 4.11e6 | 4.07e6 |
| CG7166 | DRSC11809 | 3.68e6 | 4.19e6 | 4.09e6 |
| Lime | DRSC06752 | 3.33e6 | 3.73e6 | 3.86e6 |
| Elba3 | DRSC00469 | 3.65e6 | 4.28e6 | 4.03e6 |
| CG10747 | DRSC02104 | 3.59e6 | 4.04e6 | 4.12e6 |
| CG13229 | DRSC06349 | 3.48e6 | 3.83e6 | 4.03e6 |
| Cat | DRSC11110 | 3.33e6 | 3.74e6 | 3.74e6 |
| CG10286 | DRSC12520 | 3.42e6 | 3.91e6 | 3.81e6 |
| CG1764 | DRSC19779 | 3.58e6 | 4.22e6 | 3.96e6 |
| CG32302 | DRSC08340 | 3.57e6 | 4.03e6 | 4.04e6 |
| inaF-A | DRSC19660 | 3.66e6 | 4.11e6 | 4.15e6 |
| CG32299 + CG32298 | DRSC07980 | 3.52e6 | 4.04e6 | 3.92e6 |
| CG32299 + CG32298 | DRSC22354 | 3.50e6 | 3.93e6 | 4.02e6 |
| CG17475 | DRSC15238 | 3.51e6 | 4.07e6 | 3.88e6 |
| CG14787 | DRSC18606 | 3.50e6 | 4.04e6 | 3.92e6 |
| CG32564 | DRSC19933 | 3.57e6 | 4.02e6 | 4.08e6 |
| CG5440 | DRSC00685 | 3.53e6 | 4.04e6 | 3.97e6 |
| Zip48C | DRSC06314 | 3.68e6 | 4.10e6 | 4.25e6 |
| Jhbp12 | DRSC14621 | 3.49e6 | 3.96e6 | 3.93e6 |
| CG18473 | DRSC16381 | 3.46e6 | 3.88e6 | 4.00e6 |
| CG33631 | DRSC12763 | 3.63e6 | 4.16e6 | 4.02e6 |
| Hrd3 | DRSC14156 | 3.30e6 | 3.75e6 | 3.75e6 |
| Roc2 | DRSC07313 | 3.53e6 | 4.04e6 | 4.00e6 |
| ttm50 | DRSC18587 | 3.61e6 | 3.96e6 | 4.21e6 |
| CG3746 | DRSC04412 | 3.66e6 | 4.11e6 | 4.19e6 |
| f | DRSC19174 | 1.77e6 | 4.02e6 | 3.88e6 |
| f | DRSC19516 | 3.26e6 | 3.61e6 | 3.65e6 |
| f | DRSC20331 | 3.29e6 | 3.68e6 | 3.67e6 |
| CG6785 | DRSC02993 | 3.56e6 | 4.18e6 | 3.93e6 |
| Dnz1 | DRSC03317 | 3.50e6 | 4.09e6 | 3.83e6 |
| Galk | DRSC10500 | 3.59e6 | 4.07e6 | 4.08e6 |
| CG4789 | DRSC19918 | 3.57e6 | 4.06e6 | 4.02e6 |
| CG12470 | DRSC18620 | 3.53e6 | 4.01e6 | 4.01e6 |
| CatB | DRSC03194 | 3.56e6 | 4.17e6 | 3.93e6 |
| CG18428 | DRSC15326 | 3.45e6 | 3.87e6 | 3.92e6 |
| CG7102 | DRSC02647 | 3.79e6 | 4.61e6 | 4.02e6 |
| CG7102 | DRSC03007 | 3.49e6 | 4.10e6 | 3.82e6 |
| CG31827 + CG18478 | DRSC01958 | 3.41e6 | 3.78e6 | 3.96e6 |
| CG43980 | DRSC11500 | 3.49e6 | 3.95e6 | 3.98e6 |
| CG43980 | DRSC11646 | 3.83e6 | 4.14e6 | 4.35e6 |
| CG14982 | DRSC08440 | 3.08e6 | 3.58e6 | 3.63e6 |
| CG14982 | DRSC23022 | 3.66e6 | 4.23e6 | 4.08e6 |
| Ggamma30A | DRSC02715 | 3.51e6 | 3.98e6 | 4.01e6 |
| Ggamma30A | DRSC03331 | 3.63e6 | 4.16e6 | 4.07e6 |
| CG11634 | DRSC03700 | 3.56e6 | 4.06e6 | 4.02e6 |
| CG10559 | DRSC14255 | 3.32e6 | 3.72e6 | 3.73e6 |
| Or67a | DRSC11240 | 3.80e6 | 4.27e6 | 4.26e6 |
| Hen1 | DRSC06139 | 3.74e6 | 4.18e6 | 4.29e6 |
| Hen1 | DRSC06140 | 3.65e6 | 3.96e6 | 4.10e6 |
| mfas | DRSC16997 | 3.63e6 | 4.24e6 | 4.03e6 |
| CG17380 | DRSC15230 | 3.53e6 | 3.99e6 | 4.00e6 |
| CR18228 | DRSC15317 | 3.41e6 | 3.82e6 | 3.94e6 |
| ScsbetaG | DRSC11294 | 3.45e6 | 3.92e6 | 3.91e6 |
| CG14135 | DRSC10140 | 3.84e6 | 4.44e6 | 4.19e6 |
| ssp7 | DRSC18878 | 3.35e6 | 3.90e6 | 3.69e6 |
| sog | DRSC20379 | 3.47e6 | 3.92e6 | 3.93e6 |
| eIF3g1 | DRSC18427 | 2.91e6 | 3.70e6 | 3.60e6 |
| CG34217 | DRSC05083 | 3.37e6 | 3.86e6 | 3.73e6 |
| Qsox2 | DRSC15287 | 3.42e6 | 3.96e6 | 3.80e6 |

Reprinted from the entries so far for reference:
| predicted target | dsRNA | mean viability with MMS | viability with MMS, replicate 1 | viability with MMS, replicate 2 |
| --- | --- | --- | --- | --- |
| CG18428 | DRSC15326 | 3.45e6 | 3.87e6 | 3.92e6 |
| CG7102 | DRSC02647 | 3.79e6 | 4.61e6 | 4.02e6 |
| CG7102 | DRSC03007 | 3.49e6 | 4.10e6 | 3.82e6 |
| CG31827 + CG18478 | DRSC01958 | 3.41e6 | 3.78e6 | 3.96e6 |
| CG43980 | DRSC11500 | 3.49e6 | 3.95e6 | 3.98e6 |
| CG43980 | DRSC11646 | 3.83e6 | 4.14e6 | 4.35e6 |
| CG14982 | DRSC08440 | 3.08e6 | 3.58e6 | 3.63e6 |
| CG14982 | DRSC23022 | 3.66e6 | 4.23e6 | 4.08e6 |
| Ggamma30A | DRSC02715 | 3.51e6 | 3.98e6 | 4.01e6 |
| Ggamma30A | DRSC03331 | 3.63e6 | 4.16e6 | 4.07e6 |
| CG11634 | DRSC03700 | 3.56e6 | 4.06e6 | 4.02e6 |
| CG10559 | DRSC14255 | 3.32e6 | 3.72e6 | 3.73e6 |
| Or67a | DRSC11240 | 3.80e6 | 4.27e6 | 4.26e6 |
| Hen1 | DRSC06139 | 3.74e6 | 4.18e6 | 4.29e6 |
